Assay results: US20200231671A1
Results are given in words; binding and its absence hold for the method and conditions named. Some entries that bind do so weakly or less than the wild type.

Sequences of proteins named here, by UniProt entry; tags and fusion partners are left off. Residues count along the entry.
UniProt P18627, residues 23-450: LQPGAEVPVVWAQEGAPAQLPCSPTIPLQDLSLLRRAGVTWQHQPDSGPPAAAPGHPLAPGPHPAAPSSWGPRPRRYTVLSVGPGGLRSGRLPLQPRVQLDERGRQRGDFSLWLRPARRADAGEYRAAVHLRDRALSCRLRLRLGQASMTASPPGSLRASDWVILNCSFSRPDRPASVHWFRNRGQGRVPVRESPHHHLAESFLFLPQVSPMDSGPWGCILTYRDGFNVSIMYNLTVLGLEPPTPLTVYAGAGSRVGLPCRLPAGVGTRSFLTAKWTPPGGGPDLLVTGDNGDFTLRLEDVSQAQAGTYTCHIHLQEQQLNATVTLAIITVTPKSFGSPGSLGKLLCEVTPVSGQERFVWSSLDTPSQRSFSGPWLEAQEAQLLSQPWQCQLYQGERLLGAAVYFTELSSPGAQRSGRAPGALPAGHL

Target: recombinant human LAG-3 fusion protein (human) (UniProt P18627)
Test: BIAcore, capture method

B1: 25E3 human monoclonal antibody (antibody, IgG1, V domains shown)
VH: EVQLVESGGGVVRPGGSLRLSCAASGFTFDDYGMSWVRQAPGKGLEWVSGINWNGGSTYYADSVKGRFTISGDNAKNSLYLQMNSLRAEDTALYYCTTGGYWGQGTLVTVSS
VL: AIQLTQSPSSLSASVGDRVTITCRASQGIRSALAWYQQKPGKAPKLLIYDASSLESGVPSRFSGSGSGTDFTLTISSLQPEDFATYYCQQFNSYPYTFGQGTKLEIK
binding: binds
